Measured values: patent US20090041754A1
These are yes or no findings as the source states them, for the method shown. In cells and extracts the contact can be indirect. Some entries that bind do so weakly or less than the wild type.

Amino acid sequences for entries named in this document (tags omitted). A change or cut given only in a name is not applied to a line headed by its entry.
UniProt P03372: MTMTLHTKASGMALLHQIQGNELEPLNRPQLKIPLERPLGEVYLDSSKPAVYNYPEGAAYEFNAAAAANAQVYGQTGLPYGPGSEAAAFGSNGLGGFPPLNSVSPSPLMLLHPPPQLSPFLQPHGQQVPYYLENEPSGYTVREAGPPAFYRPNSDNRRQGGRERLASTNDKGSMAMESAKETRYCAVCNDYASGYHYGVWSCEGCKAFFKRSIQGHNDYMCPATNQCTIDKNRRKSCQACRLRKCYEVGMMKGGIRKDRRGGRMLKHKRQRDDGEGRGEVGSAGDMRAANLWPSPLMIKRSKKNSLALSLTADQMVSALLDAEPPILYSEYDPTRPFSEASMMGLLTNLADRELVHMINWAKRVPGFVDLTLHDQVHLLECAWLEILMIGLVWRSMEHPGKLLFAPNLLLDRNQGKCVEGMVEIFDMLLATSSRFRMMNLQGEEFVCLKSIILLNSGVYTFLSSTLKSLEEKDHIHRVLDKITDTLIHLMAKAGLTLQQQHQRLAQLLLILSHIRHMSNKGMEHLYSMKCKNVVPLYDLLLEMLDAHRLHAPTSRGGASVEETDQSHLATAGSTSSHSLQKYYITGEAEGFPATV
UniProt P34932: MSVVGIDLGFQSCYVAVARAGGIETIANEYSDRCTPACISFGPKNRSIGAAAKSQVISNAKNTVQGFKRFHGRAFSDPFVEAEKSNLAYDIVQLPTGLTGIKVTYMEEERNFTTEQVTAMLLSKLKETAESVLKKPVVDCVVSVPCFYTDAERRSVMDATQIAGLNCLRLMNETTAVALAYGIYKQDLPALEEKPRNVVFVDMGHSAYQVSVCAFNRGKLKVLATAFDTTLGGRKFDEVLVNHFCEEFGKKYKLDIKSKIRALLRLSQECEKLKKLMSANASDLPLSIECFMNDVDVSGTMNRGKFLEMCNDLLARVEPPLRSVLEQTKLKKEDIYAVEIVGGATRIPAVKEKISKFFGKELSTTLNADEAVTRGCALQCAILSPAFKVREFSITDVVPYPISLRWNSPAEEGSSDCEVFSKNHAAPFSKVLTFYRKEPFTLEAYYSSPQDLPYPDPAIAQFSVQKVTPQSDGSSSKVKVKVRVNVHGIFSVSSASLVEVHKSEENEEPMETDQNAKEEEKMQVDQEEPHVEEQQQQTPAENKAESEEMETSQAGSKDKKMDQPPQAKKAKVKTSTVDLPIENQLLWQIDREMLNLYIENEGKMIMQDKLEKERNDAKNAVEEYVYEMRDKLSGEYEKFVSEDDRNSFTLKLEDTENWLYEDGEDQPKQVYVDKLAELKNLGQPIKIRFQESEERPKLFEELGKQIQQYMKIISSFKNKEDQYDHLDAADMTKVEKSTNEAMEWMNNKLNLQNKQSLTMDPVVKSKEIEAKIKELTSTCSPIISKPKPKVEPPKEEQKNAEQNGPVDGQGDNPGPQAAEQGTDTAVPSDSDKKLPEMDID

Legend:
[1] = target: human estrogen receptor alpha with C-terminal V5 epitope and His 6 tag (from pcDNA-ER) (human) (UniProt P03372); experiment: GST pull-down, western blot (FIG. 1, lanes 3 to 6)
[2] = target: human estrogen receptor alpha with C-terminal V5 epitope and His 6 tag (from pcDNA-ER) (human) (UniProt P03372); experiment: GST pull-down from ER expression COS-7 cell extract, western blot with anti-ERα antibody, with or without 10 µM E2

- binding [1]: binds
- binding [2]: binds
Substance: GST-HSPA4 (from UniProt P34932 1-840)
